Assay results from patent publication US20230270674A1.
Results are given in words; binding and its absence hold for the method and conditions named. Some entries that bind do so weakly or less than the wild type. Where a sequence is shown, tags or fusion partners need not be part of it.

T1: mouse SIRPα (mouse) (UniProt P97797)
T1 sequence (looked up): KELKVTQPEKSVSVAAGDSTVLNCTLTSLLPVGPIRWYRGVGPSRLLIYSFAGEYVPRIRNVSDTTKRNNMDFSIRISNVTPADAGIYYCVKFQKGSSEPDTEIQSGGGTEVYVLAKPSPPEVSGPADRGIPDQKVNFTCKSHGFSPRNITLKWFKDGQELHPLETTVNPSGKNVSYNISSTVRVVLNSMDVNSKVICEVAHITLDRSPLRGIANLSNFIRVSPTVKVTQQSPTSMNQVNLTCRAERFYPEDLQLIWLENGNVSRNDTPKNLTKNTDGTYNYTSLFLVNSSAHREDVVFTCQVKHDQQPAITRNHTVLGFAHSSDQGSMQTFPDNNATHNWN


How the values were obtained:
mouse SIRPα (mouse) [1] = molecular target: T1, mouse SIRPα (mouse); experiment: Octet, exosomes on mouse SIRPα
mouse SIRPα (mouse) [2] = molecular target: T1, mouse SIRPα (mouse); experiment: Octet, exosomes on mouse SIRPα (legend of FIG. 18)
mouse SIRPα (mouse) [3] = molecular target: T1, mouse SIRPα (mouse); experiment: Octet, exosomes on mouse SIRPα (legend of FIG. 12)

| binding (mouse SIRPα (mouse) [1]) | binding (mouse SIRPα (mouse) [2]) | binding (mouse SIRPα (mouse) [3]) | Binder |
| --- | --- | --- | --- |
| binds | binds | binds | construct 1922: extracellular domain of murine CD47 (C15S) fused to full length Scaffold X (no flag tag), expressed on exosomes (protein) QLLFSNVNSIEFTSSNETVVIPCIVRNVEAQSTEEMFVKWKLNKSYIFIYDGNKNSTTTDQNFTSAKISVSDLINGIASLKMDKRDAMVGNYTCEVTELSREGKTVIELKNRTVSWFSPNEKVPTATLVRVVGTELVIPCNVSDYDGPSEQNFDWSFSSLGSSFVELASTWEVGFPAQLYQERLQRGEILLRRTANDAVELHIKNVQPSDQGHYKCSTPSTDATVQGNYEDTVQVKVLADSLHVGPSARPPPSLSLREGEPFELRCTAASASPLHTHLALLWEVHRGPARRSVLALTHEGRFHPGLGYEQRYHSGDVRLDTVGSDAYRLSVSRALSADQGSYRCIVSEWIAEQGNWQEIQEKAVEVATVVIQPSVLRAAVPKNVSVAEGKELDLTCNITTDRADDVRPEVTWSFSRMPDSTLPGSRVLARLDRDSLVHSSPHVALSHVDARSYHLLVRDVSKENSGYYYCHVSLWAPGHNRSWHKVAEAVSSPAGVGVTWLEPDYQVYLNASKVPGFADDPTELACRVVDTKSGEANVRFTVSWYYRMNRRSDNVVTSELLAVMDGDWTLKYGERSKQRAQDGDFIFSKEHTDTFNFRIQRTTEEDRGNYYCVVSAWTKQRNNSWVKSKDVFSKPVNIFWALEDSVLVVKARQPKPFFAAGNTFEMTCKVSSKNIKSPRYSVLIMAEKPVGDLSSPNETKYIISLDQDSVVKLENWTDASRVDGVVLEKVQEDEFRYRMYQTQVSDAGLYRCMVTAWSPVRGSLWREAATSLSNPIEIDFQTSGPIFNASVHSDTPSVIRGDLIKLFCIITVEGAALDPDDMAFDVSWFAVHSFGLDKAPVLLSSLDRKGIVTTSRRDWKSDLSLERVSVLEFLLQVHGSEDQDFGNYYCSVTPWVKSPTGSWQKEAEIHSKPVFITVKMDVLNAFKYPLLIGVGLSTVIGLLSCLIGYCSSHWCCKKEVQETRRERRRLMSMEMD |
| binds | binds | binds | construct 1923: extracellular domain of murine CD47 (C15S) fused to flag-tagged full length Scaffold X, expressed on exosomes (protein, not shown: small tags and cut ends) QLLFSNVNSIEFTSSNETVVIPCIVRNVEAQSTEEMFVKWKLNKSYIFIYDGNKNSTTTDQNFTSAKISVSDLINGIASLKMDKRDAMVGNYTCEVTELSREGKTVIELKNRTVSWFSPNEKVPTATLVRVVGTELVIPCNVSDYDGPSEQNFDWSFSSLGSSFVELASTWEVGFPAQLYQERLQRGEILLRRTANDAVELHIKNVQPSDQGHYKCSTPSTDATVQGNYEDTVQVKVLADSLHVGPSARPPPSLSLREGEPFELRCTAASASPLHTHLALLWEVHRGPARRSVLALTHEGRFHPGLGYEQRYHSGDVRLDTVGSDAYRLSVSRALSADQGSYRCIVSEWIAEQGNWQEIQEKAVEVATVVIQPSVLRAAVPKNVSVAEGKELDLTCNITTDRADDVRPEVTWSFSRMPDSTLPGSRVLARLDRDSLVHSSPHVALSHVDARSYHLLVRDVSKENSGYYYCHVSLWAPGHNRSWHKVAEAVSSPAGVGVTWLEPDYQVYLNASKVPGFADDPTELACRVVDTKSGEANVRFTVSWYYRMNRRSDNVVTSELLAVMDGDWTLKYGERSKQRAQDGDFIFSKEHTDTFNFRIQRTTEEDRGNYYCVVSAWTKQRNNSWVKSKDVFSKPVNIFWALEDSVLVVKARQPKPFFAAGNTFEMTCKVSSKNIKSPRYSVLIMAEKPVGDLSSPNETKYIISLDQDSVVKLENWTDASRVDGVVLEKVQEDEFRYRMYQTQVSDAGLYRCMVTAWSPVRGSLWREAATSLSNPIEIDFQTSGPIFNASVHSDTPSVIRGDLIKLFCIITVEGAALDPDDMAFDVSWFAVHSFGLDKAPVLLSSLDRKGIVTTSRRDWKSDLSLERVSVLEFLLQVHGSEDQDFGNYYCSVTPWVKSPTGSWQKEAEIHSKPVFITVKMDVLNAFKYPLLIGVGLSTVIGLLSCLIGYCSSHWCCKKEVQETRRERRRLMSMEMD |
